From paper doi:10.1101/2025.01.07.631699 come the findings set out here.

Protein sequences, listed by entry. Tags and fused reporters are not part of them.
UniProt P48727: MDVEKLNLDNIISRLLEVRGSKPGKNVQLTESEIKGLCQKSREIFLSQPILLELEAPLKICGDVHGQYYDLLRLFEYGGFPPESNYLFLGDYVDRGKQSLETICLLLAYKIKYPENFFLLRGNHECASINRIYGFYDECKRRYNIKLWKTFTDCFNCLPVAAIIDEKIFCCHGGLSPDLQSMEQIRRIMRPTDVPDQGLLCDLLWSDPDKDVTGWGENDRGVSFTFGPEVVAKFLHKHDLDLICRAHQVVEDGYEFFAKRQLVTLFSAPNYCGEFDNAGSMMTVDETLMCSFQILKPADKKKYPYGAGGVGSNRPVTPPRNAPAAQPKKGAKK

Results are given in words; binding and its absence hold for the method and conditions named. Binding seen in cells or lysates may run through a third protein. A yes stands for co-enrichment or nearness to the bait. Other partners may have been found.

The target in the experiment is mNeonGreen tagged GSP-2 (C. elegans) (UniProt P48727). Kind of experiment: affinity purification with mass spectrometry; mNeonGreen-Trap agarose beads with about 3 mg embryonic extract of the mNG::gsp-2 strain, 4°C for 1.5 h; IP buffer 100 mM KCl, 50 mM Tris pH 7.5, 1 mM MgCl2, 1 mM DTT, 5% glycerol, 0.2% NP-40, 1 mM EDTA; N2 strain as control; triplicate; DIA mass spectrometry.

B1: SDS-22 (protein, UniProt P45969 1-326)
chain: MSNDKSAEVVVLPRENDEESKEPVLKNQFDLSTFDIDSPEIDLTHTRADHIPDLTGFPKIEELRMRNNLLVSISPTISSLVTLTSLDLYENQLTEISHLESLVNLVSLDLSYNRIRQINGLDKLTKLETLYLVSNKIEKIENLEALTQLKLLELGDNRIKKIENIGHLVNLDELFIGKNKIRQLEGVETLQKLSVLSLPGNRIVKIENVEQLNNLKELYLSDQGLQDIHGVEPLTNLLLLDVANNEIKTFSGVERLESLNDFWANDNKVESFSEIEQLSKLKGLQTVYLERNPFYFNDTNQYRRKVMMTLTQVTQIDATTCRKPIE
Turning to B1, the binding result is “binds”.

B2: APE-1 (protein, UniProt Q9XVN3 1-769)
chain: MVTTSSGGGIGYPANNGVTQVSLIHSSDSVRTVSTAPIYRPTSSMASTMAHKSSTAPFISANQRMSKPPVRVVAQPPPPHPQALSQQYHQQNPMMMYSAPNTRPHVIPTMQVQPTMAAQIKRNNPVNAQFQNPSEMIADYGVKPQSVEMVQRVRAVRRQVADEETELRRLRELEHETAQLQNKNYGRERELNVQGSMLKEAQLELRNASMRAQSLNKHLEEMYRRRQTAAAAALVEQRKMQQHQILLARAANQVSTQEVIRPRASVEPFQVNNTQQQQPSPQMMKSEEFSEKRDLNGQTGSYDAIDGSGDHQKIPTEPSYLAPCKENQQKYSELSKMASTDPHSNHSSPSTSSQKAPTLITFSPPSFEQKINSSTMTRDSPFVERPTSFGDSLDESRLRSGKTDLVSLRSDSLKATKRRSWAASEGTSMSEAEMIHRLLDEQRRGRSHFIPQLPTSQEEPSAITSETYAEEVVNSESKQVATSSDSTNNLELPTEQMVLGSDTTTEEDASSCSTRSDDGQNLEMEVAIERRTVKGILRRPNEKMNKGRIEFDPLALLLDAALEGELDLVRSSASKLTDVSQANDEGITALHNAICAGHYEIVRFLIENDADVNAQDSDGWTPLHCAASCNNLPMVRQLVEGGGCVLASTLSDMETPVEKCEEDEDGYDGCLKYLSAAHNSTGSINTGKVYAAYGYEAAFEDELSFDAGDELTVIEKDKVDKNWWTCEKNNGEKGQVPRTYLALYPSLKYRKKLNFVMFDLPLESNNNVE
B2: the binding result is listed as “binds”.
